# Reference: the supplement of paper PMC12067093, “Discovery and optimisation of a covalent ligand for TRIM25 and its application to targeted protein ubiquitination” (Chemical Science, 2025)
# Amino acid sequences for entries named in this document (tags omitted). A change or cut given only in a name is not applied to a line headed by its entry.
# UniProt Q9NZB2: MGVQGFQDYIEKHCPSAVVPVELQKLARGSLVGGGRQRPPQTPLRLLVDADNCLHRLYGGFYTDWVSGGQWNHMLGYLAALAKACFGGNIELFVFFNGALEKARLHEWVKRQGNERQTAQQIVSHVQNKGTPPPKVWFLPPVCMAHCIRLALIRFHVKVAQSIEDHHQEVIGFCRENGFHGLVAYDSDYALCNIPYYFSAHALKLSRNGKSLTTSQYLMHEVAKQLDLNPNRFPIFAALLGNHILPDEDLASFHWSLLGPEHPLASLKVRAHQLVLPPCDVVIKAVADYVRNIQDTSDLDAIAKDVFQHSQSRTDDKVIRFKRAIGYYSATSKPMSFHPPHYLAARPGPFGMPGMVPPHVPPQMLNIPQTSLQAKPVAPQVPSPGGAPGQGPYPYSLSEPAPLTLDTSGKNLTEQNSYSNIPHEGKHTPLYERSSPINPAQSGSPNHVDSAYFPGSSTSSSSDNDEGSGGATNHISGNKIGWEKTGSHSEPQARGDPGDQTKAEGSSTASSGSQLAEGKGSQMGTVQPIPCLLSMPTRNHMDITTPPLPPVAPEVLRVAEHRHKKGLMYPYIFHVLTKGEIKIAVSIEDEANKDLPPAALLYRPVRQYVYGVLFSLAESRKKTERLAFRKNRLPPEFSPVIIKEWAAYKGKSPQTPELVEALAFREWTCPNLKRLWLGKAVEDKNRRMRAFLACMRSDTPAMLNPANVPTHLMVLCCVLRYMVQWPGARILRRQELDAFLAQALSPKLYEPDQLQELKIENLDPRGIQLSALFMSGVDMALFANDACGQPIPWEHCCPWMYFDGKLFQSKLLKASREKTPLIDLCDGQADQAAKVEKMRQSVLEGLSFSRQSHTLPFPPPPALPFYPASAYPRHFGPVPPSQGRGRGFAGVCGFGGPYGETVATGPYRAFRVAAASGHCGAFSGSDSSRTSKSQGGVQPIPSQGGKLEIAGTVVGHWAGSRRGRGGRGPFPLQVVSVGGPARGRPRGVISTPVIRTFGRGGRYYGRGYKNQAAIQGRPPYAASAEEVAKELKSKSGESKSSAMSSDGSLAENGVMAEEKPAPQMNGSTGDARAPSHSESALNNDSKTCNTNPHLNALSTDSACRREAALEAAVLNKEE
# UniProt Q96HE7: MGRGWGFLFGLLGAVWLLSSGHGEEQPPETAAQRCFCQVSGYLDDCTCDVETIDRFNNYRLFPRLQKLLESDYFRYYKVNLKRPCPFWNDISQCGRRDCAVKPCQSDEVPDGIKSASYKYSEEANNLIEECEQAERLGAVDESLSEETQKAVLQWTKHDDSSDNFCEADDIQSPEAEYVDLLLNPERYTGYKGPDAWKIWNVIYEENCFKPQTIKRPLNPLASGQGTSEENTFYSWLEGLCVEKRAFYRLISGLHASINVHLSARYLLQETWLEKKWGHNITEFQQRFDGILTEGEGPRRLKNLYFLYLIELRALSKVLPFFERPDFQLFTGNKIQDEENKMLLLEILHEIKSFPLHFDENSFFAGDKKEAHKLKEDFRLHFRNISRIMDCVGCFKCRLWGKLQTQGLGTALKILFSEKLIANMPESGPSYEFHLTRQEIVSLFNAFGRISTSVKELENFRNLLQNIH
# UniProt O95571: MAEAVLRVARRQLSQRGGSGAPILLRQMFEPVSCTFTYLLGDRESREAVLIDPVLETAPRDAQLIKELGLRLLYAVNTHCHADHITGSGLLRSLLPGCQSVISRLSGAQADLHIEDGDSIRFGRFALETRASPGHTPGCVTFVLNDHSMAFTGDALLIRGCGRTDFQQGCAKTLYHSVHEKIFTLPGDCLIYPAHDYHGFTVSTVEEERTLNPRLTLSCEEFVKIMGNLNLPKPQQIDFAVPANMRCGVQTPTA
# UniProt P16930: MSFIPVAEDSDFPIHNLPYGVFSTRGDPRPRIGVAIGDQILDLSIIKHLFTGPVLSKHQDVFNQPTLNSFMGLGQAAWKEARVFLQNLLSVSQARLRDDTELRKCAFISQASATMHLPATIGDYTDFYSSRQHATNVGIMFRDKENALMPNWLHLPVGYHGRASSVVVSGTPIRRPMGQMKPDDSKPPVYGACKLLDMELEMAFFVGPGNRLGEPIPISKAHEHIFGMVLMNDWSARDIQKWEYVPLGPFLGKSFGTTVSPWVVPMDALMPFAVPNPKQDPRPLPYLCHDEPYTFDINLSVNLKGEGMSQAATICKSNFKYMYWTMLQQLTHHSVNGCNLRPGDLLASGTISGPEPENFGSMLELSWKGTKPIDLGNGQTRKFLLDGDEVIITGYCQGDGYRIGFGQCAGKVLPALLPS
# UniProt Q9BYI3: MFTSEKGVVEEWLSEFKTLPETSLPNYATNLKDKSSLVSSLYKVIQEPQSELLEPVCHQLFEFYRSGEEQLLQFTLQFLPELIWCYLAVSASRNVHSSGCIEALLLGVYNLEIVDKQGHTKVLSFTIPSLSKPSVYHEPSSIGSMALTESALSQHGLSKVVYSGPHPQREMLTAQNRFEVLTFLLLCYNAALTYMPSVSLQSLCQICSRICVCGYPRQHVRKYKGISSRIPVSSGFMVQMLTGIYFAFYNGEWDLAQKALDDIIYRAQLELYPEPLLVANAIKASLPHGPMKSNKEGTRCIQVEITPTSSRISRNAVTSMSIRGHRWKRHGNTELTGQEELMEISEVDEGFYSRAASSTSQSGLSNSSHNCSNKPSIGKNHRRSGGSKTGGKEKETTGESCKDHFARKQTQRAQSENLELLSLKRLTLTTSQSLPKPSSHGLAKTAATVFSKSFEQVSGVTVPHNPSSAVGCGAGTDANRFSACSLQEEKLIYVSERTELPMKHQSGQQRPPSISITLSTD
# UniProt Q9UNN5: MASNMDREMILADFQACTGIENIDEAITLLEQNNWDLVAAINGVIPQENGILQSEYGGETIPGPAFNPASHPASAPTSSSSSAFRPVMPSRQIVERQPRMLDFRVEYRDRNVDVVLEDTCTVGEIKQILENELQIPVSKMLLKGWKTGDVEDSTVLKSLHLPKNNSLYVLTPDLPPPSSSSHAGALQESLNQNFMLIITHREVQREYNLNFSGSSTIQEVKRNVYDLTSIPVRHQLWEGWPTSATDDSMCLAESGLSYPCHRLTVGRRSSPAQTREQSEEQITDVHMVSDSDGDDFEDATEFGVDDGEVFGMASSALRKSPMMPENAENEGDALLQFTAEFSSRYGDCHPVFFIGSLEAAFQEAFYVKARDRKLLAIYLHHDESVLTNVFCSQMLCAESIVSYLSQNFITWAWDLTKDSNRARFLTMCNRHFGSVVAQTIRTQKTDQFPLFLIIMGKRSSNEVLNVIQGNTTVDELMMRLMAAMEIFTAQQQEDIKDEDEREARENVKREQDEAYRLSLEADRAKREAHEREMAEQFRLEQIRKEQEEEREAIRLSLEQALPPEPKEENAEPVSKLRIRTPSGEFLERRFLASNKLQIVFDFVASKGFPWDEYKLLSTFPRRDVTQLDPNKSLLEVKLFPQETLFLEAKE
# UniProt P15311, whole entry, looked up: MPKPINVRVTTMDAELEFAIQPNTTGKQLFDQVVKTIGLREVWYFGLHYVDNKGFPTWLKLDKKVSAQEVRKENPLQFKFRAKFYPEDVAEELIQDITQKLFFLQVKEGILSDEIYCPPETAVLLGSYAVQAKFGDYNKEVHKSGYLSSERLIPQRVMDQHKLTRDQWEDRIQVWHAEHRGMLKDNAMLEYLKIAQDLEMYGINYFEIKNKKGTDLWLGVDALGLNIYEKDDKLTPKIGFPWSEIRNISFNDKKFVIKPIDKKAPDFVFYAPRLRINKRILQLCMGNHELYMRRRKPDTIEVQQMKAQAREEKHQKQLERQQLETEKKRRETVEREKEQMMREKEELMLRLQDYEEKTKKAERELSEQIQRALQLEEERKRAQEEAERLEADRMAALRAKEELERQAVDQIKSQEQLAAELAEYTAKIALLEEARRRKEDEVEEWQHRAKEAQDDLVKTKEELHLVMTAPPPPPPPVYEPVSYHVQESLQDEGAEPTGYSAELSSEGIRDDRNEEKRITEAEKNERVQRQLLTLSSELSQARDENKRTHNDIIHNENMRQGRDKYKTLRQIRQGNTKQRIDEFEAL
# UniProt Q5T8I3: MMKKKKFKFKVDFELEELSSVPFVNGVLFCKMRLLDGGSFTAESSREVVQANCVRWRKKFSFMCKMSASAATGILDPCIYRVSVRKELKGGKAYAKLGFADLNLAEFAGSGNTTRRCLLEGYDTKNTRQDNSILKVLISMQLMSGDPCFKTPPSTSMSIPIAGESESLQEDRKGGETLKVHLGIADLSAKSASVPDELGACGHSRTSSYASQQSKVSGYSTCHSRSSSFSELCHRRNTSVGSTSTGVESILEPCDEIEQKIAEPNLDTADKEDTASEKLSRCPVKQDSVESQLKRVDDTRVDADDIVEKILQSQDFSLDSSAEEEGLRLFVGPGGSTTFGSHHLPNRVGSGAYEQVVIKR
# UniProt Q96CS3: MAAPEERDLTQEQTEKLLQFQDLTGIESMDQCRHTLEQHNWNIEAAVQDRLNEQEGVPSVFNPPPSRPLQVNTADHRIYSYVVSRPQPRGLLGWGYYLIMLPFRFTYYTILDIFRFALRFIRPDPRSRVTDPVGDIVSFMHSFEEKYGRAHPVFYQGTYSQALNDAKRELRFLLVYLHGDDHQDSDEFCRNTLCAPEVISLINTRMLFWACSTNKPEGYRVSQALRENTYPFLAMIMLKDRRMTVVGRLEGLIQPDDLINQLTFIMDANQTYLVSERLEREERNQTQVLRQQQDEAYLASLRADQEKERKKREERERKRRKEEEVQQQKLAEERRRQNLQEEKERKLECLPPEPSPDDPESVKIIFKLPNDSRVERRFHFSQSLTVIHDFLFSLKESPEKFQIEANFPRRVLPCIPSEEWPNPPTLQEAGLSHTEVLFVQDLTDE
# UniProt Q96DZ1: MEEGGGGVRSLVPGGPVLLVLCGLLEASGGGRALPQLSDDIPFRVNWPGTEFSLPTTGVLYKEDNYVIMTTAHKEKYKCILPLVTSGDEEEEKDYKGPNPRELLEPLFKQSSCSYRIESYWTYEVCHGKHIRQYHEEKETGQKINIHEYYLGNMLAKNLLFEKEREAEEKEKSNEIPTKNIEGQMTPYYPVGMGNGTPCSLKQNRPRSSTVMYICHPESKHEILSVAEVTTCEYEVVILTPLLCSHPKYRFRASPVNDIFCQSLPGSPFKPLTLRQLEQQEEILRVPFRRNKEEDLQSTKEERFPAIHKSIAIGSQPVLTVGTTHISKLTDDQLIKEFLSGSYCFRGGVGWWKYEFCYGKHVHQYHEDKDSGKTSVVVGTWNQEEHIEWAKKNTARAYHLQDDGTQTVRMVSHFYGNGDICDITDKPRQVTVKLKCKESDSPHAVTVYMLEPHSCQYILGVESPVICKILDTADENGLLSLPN
# UniProt Q969X5: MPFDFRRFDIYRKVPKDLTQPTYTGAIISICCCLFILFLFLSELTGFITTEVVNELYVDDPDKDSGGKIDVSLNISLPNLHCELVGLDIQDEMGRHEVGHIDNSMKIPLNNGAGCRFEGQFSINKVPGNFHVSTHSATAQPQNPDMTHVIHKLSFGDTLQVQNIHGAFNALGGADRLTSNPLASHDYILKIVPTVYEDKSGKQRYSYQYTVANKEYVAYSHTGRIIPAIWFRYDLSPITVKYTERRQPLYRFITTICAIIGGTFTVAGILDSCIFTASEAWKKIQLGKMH
# UniProt Q9H501: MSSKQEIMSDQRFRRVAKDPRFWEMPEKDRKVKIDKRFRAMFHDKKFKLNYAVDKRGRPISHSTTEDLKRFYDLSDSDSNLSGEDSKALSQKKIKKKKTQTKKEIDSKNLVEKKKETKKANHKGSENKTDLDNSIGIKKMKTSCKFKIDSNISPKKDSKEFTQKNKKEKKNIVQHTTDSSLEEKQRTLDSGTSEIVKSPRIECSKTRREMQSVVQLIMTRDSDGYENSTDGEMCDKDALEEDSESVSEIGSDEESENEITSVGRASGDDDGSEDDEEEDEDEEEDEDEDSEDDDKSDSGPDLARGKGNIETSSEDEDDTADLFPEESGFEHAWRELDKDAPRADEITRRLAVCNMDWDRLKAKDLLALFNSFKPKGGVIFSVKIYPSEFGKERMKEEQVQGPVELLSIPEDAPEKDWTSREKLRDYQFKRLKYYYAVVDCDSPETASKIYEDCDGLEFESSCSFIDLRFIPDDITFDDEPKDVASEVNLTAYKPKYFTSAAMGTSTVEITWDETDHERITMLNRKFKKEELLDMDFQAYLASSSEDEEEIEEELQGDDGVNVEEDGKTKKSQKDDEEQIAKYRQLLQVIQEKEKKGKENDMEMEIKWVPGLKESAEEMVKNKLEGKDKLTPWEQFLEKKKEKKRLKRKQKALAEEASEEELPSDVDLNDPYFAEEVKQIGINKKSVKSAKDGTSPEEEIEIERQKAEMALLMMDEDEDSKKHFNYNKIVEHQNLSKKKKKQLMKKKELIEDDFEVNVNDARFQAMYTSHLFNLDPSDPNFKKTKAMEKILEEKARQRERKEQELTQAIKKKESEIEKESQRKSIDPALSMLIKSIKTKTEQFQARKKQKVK
# Some of the results follow.
# Compound: Cc1cc(ccc1-c1ccccc1)C(=O)N1CCCN(CC1)C(=O)CCl [compound 10]
# Test: probe-labelled cysteine peptide fold change vs DMSO (competition) (log2 fold change); higher = less target engagement (more negative = stronger competition)
# Conditions: 10 µM; THP-1; incubation time: 4 h
# 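Further: competitive profiling in live THP-1 cells: cysteine peptides tagged with an iodoacetamide desthiobiotin (IA-DTB) probe, intensity after compound treatment relative to DMSO-treated cells.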
row,Target,probe-labelled cysteine peptide fold change
1,FAM120A_Q9NZB2_192_ENGFHGLVAYDSDYALCNIPYYFSAHALK (UniProt Q9NZB2),0.0489
2,ERO1A_Q96HE7_208_IWNVIYEENCFKPQTIK (UniProt Q96HE7),-0.146
3,ERO1A_Q96HE7_99+104_DCAVKPCQSDEVPDGIK (UniProt Q96HE7),-0.537
4,ERF_P50548_492_WSEDCR (UniProt P50548),-0.154
5,ETHE1_O95571_34_QMFEPVSCTFTYLLGDR (UniProt O95571),0.0825
6,FAH_P16930_105_CAFISQASATMHLPATIGDYTDFYSSR (UniProt P16930),0.0468
7,EXOSC10_Q01780_612_LENVLFGPHDCSHAPPDGYPIIPTSGSVPVQK (UniProt Q01780),0.124
8,ETHE1_O95571_34_QMFEPVSCTFTYLLGDRESR (UniProt O95571),-0.207
9,FAM126A_Q9BYI3_57_VIQEPQSELLEPVCHQLFEFYR (UniProt Q9BYI3),0.156
10,EXOSC5_Q9NQT4_209_GLYSDTELQQCLAAAQAASQHVFR (UniProt Q9NQT4),0.181
11,FAF1_Q9UNN5_428_FLTMCNR (UniProt Q9UNN5),0.108
12,FAM129A_Q9BZQ8_763_EPSQAAAIHPDNCEESEVSER (UniProt Q9BZQ8),-0.306
13,ERLIN2_O94905_262_AKADAECYTAMK (UniProt O94905),-0.125
14,EXT2_Q93063_657_CPECTAIDGLSLDQTHMVER (UniProt Q93063),-0.000977
15,ERI3_O43414_313_GLSLQHIGRPHSGIDDCK (UniProt O43414),0.0184
16,EXOC7_Q9UPT5_83_TLSCLDHVISYYHVASDTEK (UniProt Q9UPT5),0.00945
17,F2_P00734_594_WYQMGIVSWGEGCDR (UniProt P00734),-0.204
18,FAAP100_Q0VG06_309+311_TEPQAAEAAENFLPDEDVHCDCLVAFGHHGR (UniProt Q0VG06),-0.158
19,FAM120B_Q96EK7_380_QEVPMCSDPEPR (UniProt Q96EK7),-0.331
20,EXOSC7_Q15024_189_DIELSDDPYDCIR (UniProt Q15024),0.163

row,Target,probe-labelled cysteine peptide fold change
1,EXOC6_Q8TAG9_28_ILQEIESTDTACVGPTLR (UniProt Q8TAG9),-0.22
2,ETV6_P41212_452_TDRLEHLESQELDEQIYQEDEC (UniProt P41212),-0.294
3,FAAP100_Q0VG06_309_TEPQAAEAAENFLPDEDVHCDCLVAFGHHGR (UniProt Q0VG06),0.118
4,EZR_P15311_284_ILQLCMGNHELYMR (UniProt P15311),0.0146
5,ETFDH_Q16134_589_LQINAQNCVHCK (UniProt Q16134),0.102
6,FAM102B_Q5T8I3_254_NTSVGSTSTGVESILEPCDEIEQK (UniProt Q5T8I3),-0.0987
7,FAF2_Q96CS3_189_FLLVYLHGDDHQDSDEFCR (UniProt Q96CS3),0.0394
8,ERLEC1_Q96DZ1_126_IESYWTYEVCHGK (UniProt Q96DZ1),0.192
9,ETFB_P38117_66+71_EVIAVSCGPAQCQETIR (UniProt P38117),0.0324
10,ERP44_Q9BS26_301_GTINFLHADCDK (UniProt Q9BS26),-0.0708
11,EXOSC4_Q9NPD3_97_SCEMGLQLR (UniProt Q9NPD3),-0.0727
12,ERGIC1_Q969X5_115_IPLNNGAGCR (UniProt Q969X5),0.187
13,ETFA_P13804_109_QFNYTHICAGASAFGK (UniProt P13804),-0.00826
14,ERO1A_Q96HE7_104_PCQSDEVPDGIK (UniProt Q96HE7),-0.264
15,FAF2_Q96CS3_349_KLECLPPEPSPDDPESVK (UniProt Q96CS3),-0.0728
16,FAH_P16930_315_GEGMSQAATICK (UniProt P16930),0.0705
17,ERO1B_Q86YB8_165_YDDSRDHFCELDDERSPAAQYVDLLLNPER (UniProt Q86YB8),-0.193
18,ESF1_Q9H501_462_IYEDCDGLEFESSCSFIDLR (UniProt Q9H501),-0.0684
19,FAM120A_Q9NZB2_919_VAAASGHCGAFSGSDSSR (UniProt Q9NZB2),-0.383
20,ETS1_P14921_237_QEVVTPDNMCMGR (UniProt P14921),-0.103

# Reprinted at random: 2 entries already listed.
row,Target,probe-labelled cysteine peptide fold change
19,FAM120A_Q9NZB2_919_VAAASGHCGAFSGSDSSR (UniProt Q9NZB2),-0.383
6,FAM102B_Q5T8I3_254_NTSVGSTSTGVESILEPCDEIEQK (UniProt Q5T8I3),-0.0987
